The structures appear in SMILES notation. Counter-ions that a name gives are not always drawn. Some of the results follow. Baselines shift from plate to plate; read single values as rough.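 The strain is a K-12 laboratory model grown without shaking in 96-well plates, and biofilm is the crystal violet stain retained on the wells, read as absorbance. Drugs were picked as candidate specific biofilm blockers when they cut staining strongly but slowed free-floating growth by less than 70%.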

The test system of this assay is Escherichia coli W3110. The assay can be described thus: biofilm formation (crystal violet staining) relative to untreated control; higher = more biofilm. The conditions noted are these: 10 µM; 20-24 h; 30 °C; TB.
As to `CC(C)NCC(O)c1ccc(NS(C)(=O)=O)cc1` (configuration not stated) [Sotalol hydrochloride], the biofilm formation came to 96%.

Consider `CC(=O)N1CCN(c2ccc(OCC3COC(Cn4ccnc4)(c4ccc(Cl)cc4Cl)O3)cc2)CC1` (configuration not stated) [Ketoconazole], for which the biofilm formation worked out at 93%.

As to `CN(CCOc1ccc(NS(C)(=O)=O)cc1)CCc1ccc(NS(C)(=O)=O)cc1` [Dofetilide], the biofilm formation stood at 78%.

The compound `CCN(CC)CCCC(C)Nc1c2ccc(Cl)cc2nc2ccc(OC)cc12` (configuration not stated) [Quinacrine dihydrochloride hydrate] registered a biofilm formation of 90%.

Regarding `CCCCCCCCCCCCCCCC[N+](C)(C)CCN(Cc1ccc(OC)cc1)c1ncccn1` [Thonzonium bromide], the biofilm formation stood at 11%.

Turning to `CO[C@@]1(NC(=O)C(C(=O)O)c2ccc(O)cc2)C(=O)N2C(C(=O)O)=C(CSc3nnnn3C)CO[C@@H]21` (some centres not stated) [Moxalactam disodium salt], the biofilm formation was 11%.

Regarding `C#C[C@]1(O)CC[C@H]2[C@@H]3CCC4=CC(=O)CC[C@@H]4[C@H]3CC[C@@]21C` [Norethindrone], the biofilm formation came out at 60%.

Regarding `C#C[C@]1(OC(C)=O)CC[C@H]2[C@@H]3CCC4=C[C@@H](OC(C)=O)CC[C@@H]4[C@H]3CC[C@@]21C` [Ethynodiol diacetate], the biofilm formation came to 60%.

Turning to `Nc1ccc(S(=O)(=O)Nc2ncccn2)cc1` [Sulfadiazine], the biofilm formation was 34%.

`CCN(CC)CCOC(=O)C1(c2ccc([N+](=O)[O-])cc2)CCCC1` [Nitrocaramiphen hydrochloride]: the biofilm formation turned out to be 82%.

`Clc1ccccc1CN1CCc2sccc2C1` [Ticlopidine hydrochloride]: the biofilm formation came out at 75%.

`Nc1ccc(O)c(C(=O)O)c1` [Mesalamine] yielded a biofilm formation of 69%.

`Cc1cc(NC(=O)C2=C(O)c3ccccc3S(=O)(=O)N2C)no1` [Isoxicam] returned a biofilm formation of 76%.

For `Cc1cc(C(C)(C)CC(C)(C)C)ccc1OCCOCC[N+](C)(C)Cc1ccccc1` [Methyl benzethonium chloride], the biofilm formation came out at 30%.

As to `CO[C@@]1(NC(=O)C2SC(=C(C(N)=O)C(=O)O)S2)C(=O)N2C(C(=O)O)=C(CSc3nnnn3C)CS[C@@H]21` (some centres not stated) [Cefotetan], the biofilm formation is 0%.

For `CN(C)CCCN1c2ccccc2CCc2ccc(Cl)cc21` [Clomipramine hydrochloride], the biofilm formation is 61%.

In turn, `COC(=O)C1=C(C)NC(C)=C(C(=O)OC)C1c1ccccc1[N+](=O)[O-]` [Nifedipine] gave a biofilm formation of 69%.

In the case of `C[C@@H](c1ncncc1F)[C@](O)(Cn1cncn1)c1ccc(F)cc1F` [Voriconazole], the biofilm formation was determined as 72%.

`O=C(O)Cc1ccccc1Nc1c(Cl)cccc1Cl` [Diclofenac sodium] had a biofilm formation of 78%.

For the compound `CN1CCN(CCCN2c3ccccc3Sc3ccc(S(=O)(=O)N(C)C)cc32)CC1` [Thioproperazine dimesylate], the biofilm formation turned out to be 68%.

In the case of `CC(=O)Oc1cc(C(F)(F)F)ccc1C(=O)O` [Triflusal], the biofilm formation is 70%.

For `C[C@]12C=CC(=O)C=C1CC[C@@H]1[C@@H]2[C@@H](O)C[C@@]2(C)[C@H]1CC[C@]2(O)C(=O)CO` [Prednisolone], the biofilm formation was found to be 50%.

`O=c1[nH]cc(F)c(=O)[nH]1` [5-fluorouracil] gave a biofilm formation of 75%.

Regarding `CS(=O)(=O)c1ccc([C@@H](O)[C@@H](CO)NC(=O)C(Cl)Cl)cc1` [Thiamphenicol], the biofilm formation was determined as 70%.

`CC(C)Cc1ccc([C@H](C)C(=O)O)cc1` [S-(+)-ibuprofen] registered a biofilm formation of 50%.

The compound `NS(=O)(=O)c1cc2c(cc1Cl)N=C(CSCc1ccccc1)NS2(=O)=O` [Benzthiazide] gave a biofilm formation of 60%.

For the compound `O=C1C(CC[S+]([O-])c2ccccc2)C(=O)N(c2ccccc2)N1c1ccccc1` (configuration not stated) [Sulfinpyrazone], the biofilm formation worked out at 69%.

Turning to `CC(=O)O[C@]1(C(C)=O)CC[C@H]2[C@@H]3C=C(C)C4=CC(=O)CC[C@@H]4[C@H]3CC[C@@]21C` [Nomegestrol acetate], the biofilm formation was 81%.

With `C[C@H](CCC(=O)O)[C@H]1CC[C@H]2[C@@H]3CC[C@@H]4C[C@H](O)CC[C@]4(C)[C@H]3CC[C@]12C` [Lithocholic acid], the biofilm formation is 77%.

As to `CC(=O)SCC(Cc1ccccc1)C(=O)NCC(=O)OCc1ccccc1` (configuration not stated) [Racecadotril], the biofilm formation amounted to 70%.

As for `COC(=O)C1=C(C)NC(C)=C(C(=O)OC(C)C)C1c1cccc2nonc12` (configuration not stated) [Isradipine], the biofilm formation was found to be 83%.

`O=C(O)CCCC[C@@H]1SC[C@@H]2NC(=O)N[C@@H]21` [Biotin] returned a biofilm formation of 82%.

`COCC(=O)Nc1c(I)c(C(=O)NCC(O)CO)c(I)c(C(=O)N(C)CC(O)CO)c1I` (configuration not stated) [Iopromide] displayed a biofilm formation of 82%.

`CC1COc2c(N3CCN(C)CC3)c(F)cc3c(=O)c(C(=O)O)cn1c23` (configuration not stated) [Ofloxacin] gave a biofilm formation of 13%.

Regarding `Cn1cnc([N+](=O)[O-])c1Sc1ncnc2[nH]cnc12` [Azathioprine], the biofilm formation stood at 52%.

`CC(C)C(=O)Nc1ccc([N+](=O)[O-])c(C(F)(F)F)c1` [Flutamide]: the biofilm formation came to 92%.

Regarding `CC(C)CN(C[C@@H](O)[C@H](Cc1ccccc1)NC(=O)O[C@H]1CO[C@H]2OCC[C@H]21)S(=O)(=O)c1ccc(N)cc1` [Darunavir], the biofilm formation is 85%.

As for `O=C1c2cccc3c2[C@H](CCC3)CN1[C@@H]1CN2CCC1CC2` [Palonosetron hydrochloride], the biofilm formation is 61%.

`NCC[C@H](O)C(=O)N[C@@H]1C[C@H](N)[C@@H](O[C@H]2O[C@H](CN)[C@@H](O)[C@H](O)[C@H]2O)[C@H](O)[C@H]1O[C@H]1O[C@H](CO)[C@@H](O)[C@H](N)[C@H]1O` [Amikacin hydrate] displayed a biofilm formation of 17%.

`O=c1[nH]cnc2c1ncn2[C@H]1CC[C@@H](CO)O1` [Didanosine]: the biofilm formation was determined as 92%.

`CN(C/C=C/C#CC(C)(C)C)Cc1cccc2ccccc12` [Terbinafine]: the biofilm formation came out at 68%.

As to `Fc1ccc([C@@H]2CCNC[C@H]2COc2ccc3c(c2)OCO3)cc1` [Paroxetine Hydrochloride], the biofilm formation amounted to 93%.

`Nc1nc(O)c2ncn(CCC(CO)CO)c2n1` [Penciclovir] showed a biofilm formation of 87%.

In turn, `C[C@H]1COc2c(N3CCN(C)CC3)c(F)cc3c(=O)c(C(=O)O)cn1c23` [Levofloxacin] returned a biofilm formation of 15%.

For the compound `CN(C)CCCN1c2ccccc2CCc2ccccc21` [Imipramine hydrochloride], the biofilm formation is 96%.

With `NC(CO)C(=O)NNCc1ccc(O)c(O)c1O` (configuration not stated) [Benserazide hydrochloride], the biofilm formation amounted to 46%.

With `NCCC[C@H](N)CC(=O)N[C@H]1CNC(=O)[C@H]([C@H]2C[C@H](O)NC(N)=N2)NC(=O)/C(=C/NC(N)=O)NC(=O)[C@H](CO)NC(=O)[C@H](CO)NC1=O` [Viomycin sulfate], the biofilm formation is 89%.

The compound `CN1CCC(OC(c2ccccc2)c2ccccc2)CC1` [Diphenylpyraline hydrochloride] yielded a biofilm formation of 68%.

The compound `O=C(Oc1cccc2cccnc12)c1ccccc1` [Benzoxiquine] displayed a biofilm formation of 73%.

In the case of `Clc1ccc(Nc2nnc(Cc3ccncc3)c3ccccc23)cc1` [Vatalanib], the biofilm formation turned out to be 102%.

Turning to `O=C(O)CCNC(=O)c1ccc(/N=N/c2ccc(O)c(C(=O)O)c2)cc1` [Balsalazide Sodium], the biofilm formation was determined as 87%.

With `Cc1cccc(Nc2ccccc2C(=O)O)c1C` [Mefenamic acid], the biofilm formation was 94%.

For `CCC(C)n1ncn(-c2ccc(N3CCN(c4ccc(OCC5COC(Cn6cncn6)(c6ccc(Cl)cc6Cl)O5)cc4)CC3)cc2)c1=O` (configuration not stated) [Itraconazole], the biofilm formation is 96%.

`C[n+]1ccccc1/C=N/O` [Pralidoxime chloride]: the biofilm formation was 62%.

On to `O=C1OC(CN2CCOCC2)CN1/N=C/c1ccc([N+](=O)[O-])o1` (configuration not stated) [Furaltadone hydrochloride], for which the biofilm formation turned out to be 63%.

On to `CNCCCN1c2ccccc2CCc2ccccc21` [Desipramine hydrochloride], for which the biofilm formation was found to be 49%.

The compound `O=C1CCC(N2C(=O)c3ccccc3C2=O)C(=O)N1` (configuration not stated) [Thalidomide] registered a biofilm formation of 69%.

The compound `O=C1NCCN1CCN1CCC(c2cn(-c3ccc(F)cc3)c3ccc(Cl)cc23)CC1` [Sertindole] returned a biofilm formation of 92%.

For the compound `CCN(CC)CCNC(=O)COc1ccc(OC)cc1` [Mefexamide hydrochloride], the biofilm formation worked out at 75%.

For the compound `Cc1nc2n(c(=O)c1CCN1CCC(c3noc4cc(F)ccc34)CC1)CCCC2O` (configuration not stated) [Paliperidone], the biofilm formation came out at 53%.

Consider `Clc1ccc(C(Cn2ccnc2)OCc2csc3c(Cl)cccc23)c(Cl)c1` (configuration not stated) [Sertaconazole nitrate], for which the biofilm formation was determined as 35%.

Regarding `CC(=O)OCC1=C(C(=O)O)N2C(=O)[C@@H](NC(=O)Cc3cccs3)[C@H]2SC1` [Cephalothin sodium salt], the biofilm formation is 59%.

As for `CC1(C)S[C@@H]2[C@H](NC(=O)Cc3ccccc3)C(=O)N2[C@H]1C(=O)O` [Benzathine benzylpenicillin], the biofilm formation was 71%.

For the compound `CC1(C)S[C@@H]2[C@H](NC(=O)Cc3ccccc3)C(=O)N2[C@H]1C(=O)O` [Benzylpenicillin sodium], the biofilm formation was found to be 52%.

As for `CCCCc1nc(Cl)c(CO)n1Cc1ccc(-c2ccccc2-c2nnn[nH]2)cc1` [Losartan], the biofilm formation came out at 79%.

The compound `CCC(=O)OCC(=O)[C@@]1(OC(=O)CC)[C@@H](C)C[C@H]2[C@@H]3CCC4=CC(=O)C=C[C@]4(C)[C@@]3(Cl)[C@@H](O)C[C@@]21C` [Beclomethasone dipropionate] had a biofilm formation of 65%.

For the compound `CCN(CC)Cc1cc(Nc2ccnc3cc(Cl)ccc23)ccc1O` [Amodiaquin dihydrochloride dihydrate], the biofilm formation was 66%.

In turn, `COc1ccccc1N1CCN(CCCNc2cc(=O)n(C)c(=O)n2C)CC1` [Urapidil hydrochloride] yielded a biofilm formation of 47%.

For the compound `COc1nc(N)nc2c1ncn2[C@@H]1O[C@H](CO)[C@@H](O)[C@@H]1O` [Nelarabine], the biofilm formation turned out to be 67%.

In the case of `Cn1c(=O)c2c(ncn2CCO)n(C)c1=O` [Etofylline], the biofilm formation was determined as 67%.

`CC(C)NCC(O)c1cc(O)cc(O)c1` (configuration not stated) [Metaproterenol sulfate, orciprenaline sulfate] yielded a biofilm formation of 75%.

In turn, `O=C(O)CN(CCN(CC(=O)O)CC(=O)O)CCN(CC(=O)O)CC(=O)O` [Pentetic acid] yielded a biofilm formation of 66%.

Source of the values: the supplement of paper PMC7580552.
